Measurements from patent publication US20250049970A1, “DLL3 TARGETING PEPTIDES AND CONSTRUCTS THEREOF” (MARIANA ONCOLOGY INC., priority 2023, published 2025).
At least one structure is not confirmed: it was looked up by name or label, or the drawing left a doubt. *1 amine or outer side, *2 acyl side, *3 side chain or, on linkers, in order; H or OH if unused. Where a SMILES comes first, the peptide text is derived from it. Bridges are numbered along the chain shown (N, C = ends). [ ]: non-standard residue; d: D form. The star is where a group is joined. Ala(piperidin-4-yl) = O=C([C@H](CC1CCN([*:3])CC1)N[*:1])[*:2]; DOTA = O=C(O)CN1CCN(CC(=O)O)CCN(CC(=O)*)CCN(CC(=O)O)CC1; 2Nal = N[C@@H](Cc1ccc2ccccc2c1)C(=O)O; aIle = CC[C@@H](C)[C@H](N)C(=O)O

Columns and labels:
Format in all cases: cell-based
Conditions in all cases: 1 h, 37° C.
[1] = test system: SHP-77 cells; test: Cell binding (total uptake) of [177Lu]Lu-labeled peptide, SHP-77 cells
Procedure: (§1) [^177Lu]LuCl3 was received from venders in HCl solution. For every mCi of [^177Lu]LuCl3 added to the reaction vial (1.5 mL Eppendorf vial), ammonium acetate buffer (0.2 M, pH 4.9, 100 μL, containing 1% w/v ascorbic acid and 6% v/v ethanol) and peptide conjugate (1 nmol; also referred to herein as “chelator-peptides”) was added. The pH of the solution was determined to be approximately 5 by using pH strips. The reaction vial was incubated at 80° C., 700 RPM for 17-20 minutes. A sample from the reaction was analyzed by RP-HPLC using an Agilent Infinity II 1260 HPLC to determine reaction completion and radiochemical purity of [^177Lu]Lu-chelator-peptides. HPLC conditions: Waters XBridge BEH C18 Column, 130A, 3.5 μm, 4.6 mm×250 mm; mobile phase: Solvent A=water (with 0.1% formic acid), solvent B=acetonitrile (with 0.1% formic acid). Gradients: 25-45% B in 10 minutes, 45-65% B in 12 minutes, 65-90% in 6 minutes at a flow rate of 0.5 mL/minutes Required amounts of the product was formulated in 1% PBSA for cell studies. […]
(§2) Total uptake: Cells were incubated with 300 μL (0.8 μCi) of the incubation buffer (containing radiolabeled peptide [^177Lu]Lu-test peptide) for 1 hour at 37° C. […] The supernatant and washes were combined and counted together as “unbound fraction” in a gamma counter. The cells were then resuspended in 300 μL of 1% PBS+1% BSA and counted in the gamma counter as “bound fraction”. […]

[2] = test system: SHP-77 cells; test: Internalization of [177Lu]Lu-labeled peptide, SHP-77 cells
Procedure: (§3) [^177Lu]LuCl3 was received from venders in HCl solution. For every mCi of [^177Lu]LuCl3 added to the reaction vial (1.5 mL Eppendorf vial), ammonium acetate buffer (0.2 M, pH 4.9, 100 μL, containing 1% w/v ascorbic acid and 6% v/v ethanol) and peptide conjugate (1 nmol; also referred to herein as “chelator-peptides”) was added. The pH of the solution was determined to be approximately 5 by using pH strips. The reaction vial was incubated at 80° C., 700 RPM for 17-20 minutes. A sample from the reaction was analyzed by RP-HPLC using an Agilent Infinity II 1260 HPLC to determine reaction completion and radiochemical purity of [^177Lu]Lu-chelator-peptides. HPLC conditions: Waters XBridge BEH C18 Column, 130A, 3.5 μm, 4.6 mm×250 mm; mobile phase: Solvent A=water (with 0.1% formic acid), solvent B=acetonitrile (with 0.1% formic acid). Gradients: 25-45% B in 10 minutes, 45-65% B in 12 minutes, 65-90% in 6 minutes at a flow rate of 0.5 mL/minutes Required amounts of the product was formulated in 1% PBSA for cell studies.
(§4) The study was conducted using SHP-77, CT26.WT, CT26.DLL3, and HEK293.DLL3 cells (Table 9) […]
(§5) Internalization: The resuspended cells in 300 μL of 1% PBSA and counted in the gamma counter as “bound fraction” were collected in 1.5 mL Eppendorf tube and pelleted. […] This was counted in the gamma counter as “internalized fraction”. […]

[3] = test system: CT26.DLL3 cells; test: Internalization of [177Lu]Lu-labeled peptide, CT26.DLL3 cells
Procedure: as §3, §4, §5

[4] = test system: CT26.DLL3 cells; test: Cell binding (total uptake) of [177Lu]Lu-labeled peptide, CT26.DLL3 cells
Procedure: as §1, §2

Structure (SMILES): CC[C@@H](C)[C@H](NC(=O)[C@@H](NC(=O)[C@H](Cc1c[nH]c2ccccc12)NC(C)=O)[C@@H](C)O)C(=O)N[C@H]1CSSC[C@@H](C(=O)N[C@@H](Cc2c[nH]c3ccccc23)C(=O)N2CCC[C@H]2C(N)=O)NC(=O)[C@H](CC(=O)O)NC(=O)[C@H](CCCCNC(=O)CN2CCN(CC(=O)O)CCN(CC(=O)O)CCN(CC(=O)O)CC2)NC(=O)[C@H](Cc2ccc3ccccc3c2)NC(=O)[C@H](CC(N)=O)NC(=O)[C@H](CC2CCNCC2)NC1=O [compound 303, Ac-W-T-(Allo-Ile)-C(3)-[3-(4-piperidinyl)-Ala]-N-(2Nal)-Lys(DOTA)-D-C(3)-W-P-CONH2] (Ac-WT[aIle]C[Ala(piperidin-4-yl)]N[2Nal]K(DOTA)DCWP-NH2; disulfide 4-10)
- % Binding [1]: B (25 <% ≤50)
- % Internalization (out of bound fraction) [2]: B (25 <% ≤50)
- % Internalization (out of bound fraction) [3]: C (% >50)
- % Binding [4]: A (% s ≤25)
